Assay results from patent US20150079113A1 (MIT, published 2015).

Chains of the proteins cited; added tags and fusions are not shown. Residues count along the entry.
UniProt P11688, 45-1053: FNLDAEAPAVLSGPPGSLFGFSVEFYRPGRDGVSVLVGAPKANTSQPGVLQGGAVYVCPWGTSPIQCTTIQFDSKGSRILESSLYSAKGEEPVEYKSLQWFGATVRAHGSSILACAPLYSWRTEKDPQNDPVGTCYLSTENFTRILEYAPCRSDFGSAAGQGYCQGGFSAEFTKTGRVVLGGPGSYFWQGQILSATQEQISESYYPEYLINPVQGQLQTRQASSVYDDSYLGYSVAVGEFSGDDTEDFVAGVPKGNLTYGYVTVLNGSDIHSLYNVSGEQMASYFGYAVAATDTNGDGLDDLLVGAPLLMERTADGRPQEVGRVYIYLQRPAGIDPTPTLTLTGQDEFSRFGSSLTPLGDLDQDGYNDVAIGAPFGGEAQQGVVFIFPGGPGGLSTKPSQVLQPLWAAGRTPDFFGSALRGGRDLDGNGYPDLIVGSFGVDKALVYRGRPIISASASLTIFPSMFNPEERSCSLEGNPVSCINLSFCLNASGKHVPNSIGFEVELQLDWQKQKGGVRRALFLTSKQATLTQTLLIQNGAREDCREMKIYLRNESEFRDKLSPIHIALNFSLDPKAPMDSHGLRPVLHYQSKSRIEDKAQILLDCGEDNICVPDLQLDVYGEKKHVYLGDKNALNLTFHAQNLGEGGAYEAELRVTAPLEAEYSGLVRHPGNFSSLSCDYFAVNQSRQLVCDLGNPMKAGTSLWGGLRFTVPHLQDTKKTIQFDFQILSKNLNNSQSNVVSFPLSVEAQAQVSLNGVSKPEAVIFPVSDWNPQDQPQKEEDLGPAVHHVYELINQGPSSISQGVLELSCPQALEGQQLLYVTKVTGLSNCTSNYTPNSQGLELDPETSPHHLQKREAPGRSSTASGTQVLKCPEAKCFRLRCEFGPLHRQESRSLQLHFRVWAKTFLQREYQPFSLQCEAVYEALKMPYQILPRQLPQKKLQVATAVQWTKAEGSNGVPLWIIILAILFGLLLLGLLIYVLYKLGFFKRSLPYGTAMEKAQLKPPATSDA

Target: T1, α5 integrin (endogenous) (mouse, UniProt P11688 45-1053)
T1 construct: whole, on cells; Present in cells as the α5β1 heterodimer; detected by immunofluorescence or immunoprecipitated from lysates; also called endogenous α5; alpha5 integrin
Assay: α5 immunoprecipitation from NIH3T3 cell lysates, western blot

B1: Paxillin (endogenous) (other, UniProt Q8VI36 1-591, looked up)
chain: MDDLDALLADLESTTSHISKRPVFLSEEPPYSYPTGNHTYQEIAVPPPVPPPPSSEALNGTVLDPLDQWQPSGSRYAHQQPPSPLPVYSSSAKNSSASNTQDGVGSLCSRAGEEEHVYSFPNKQKSAEPSPTVMSSSLGSNLSELDRLLLELNAVQHSPPGFPADEAESSPPLPGALSPLYGIPENNTPLGGKAGPLVKEKPKRNGGRGLEDVRPSVESLLDELESSVPSPVPAITVNQGEMSSPQRVTSSQQQTRISASSATRELDELMASLSDFKMQGLEQRVDGERPWAAGWPPSSRQSSPEGQDEGGFMAQGKTGSSSPPGGLSKPGSQLDSMLGSLQSDLNKLGVATVAKGVCGACKKPIAGQVVTAMGKTWHPEHFVCTHCQEEIGSRNFFERDGQPYCEKDYHSLFSPRCYYCNGPILDKVVTALDRTWHPEHFFCAQCGAFFGPEGFHEKDGKAYCRKDYFDMFAPKCGGCARAILENYISALNTLWHPECFVCRECFTPFVNGSFFEHDGQPYCEVHYHERRGSLCSGCQKPITGRCITAMAKKFHPEHFVCAFCLKQLNKGTFKEQNDKPYCQSCFVKLFC
notes: whole, on cells
- binding result: no binding
